# Experimental data as given in PubChem BioAssay AID2685 (National Center for Advancing Translational Sciences (NCATS), 2010).
# Some of the results follow. Further columns of the screen follow, without active or inactive calls. The list favours compounds with an active or inconclusive main result. The note in brackets gives the kind of curve behind each potency; many fits are weak.
# Assay: qHTS Assay for Lipid Storage Modulators in Drosophila S3 Cells;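 for cell number change: cells counted by Cell Tracker Red CMTPX staining in the red channel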
# Conditions: BODIPY lipid droplet fluorescence, 18-24 h; for cell number change: measured here: cell count max response, cells fed with added oleic acid
# In short: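 Laser-scanning cytometry quantifies lipid droplet accumulation (500–530 nm total intensity; droplet/cell object ratio) in oleic acid-fed (400 uM added) Drosophila S3 cells treated with a concentration series. 20 uM Triacsin C defined 100% inhibition.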
# [1] = measured here: cell number channel AC50, cells fed with added oleic acid
# [2] = measured here: lipid fluorescence (Fed channel) AC50, cells fed with added oleic acid
Structure (SMILES),cell number change,AC50 [1],AC50 [2]
CCO/C=C1\C(=O)N(c2ccc(OCC)cc2)C(=O)c2ccccc21,-2.84%,–,–
CCCc1cc(=O)n2[nH]c(-c3cc(OC)c(OC)c(OC)c3)nc2n1,–,"6.51 µM [falling, single point]",–
CCOc1ccc(CNC(=O)CCCn2ccc3cc(S(=O)(=O)N4CCCC4)ccc32)cc1,–,–,"29.1 µM [falling, single point]"
O=C1C(=O)N(CCS(=O)(=O)c2ccccc2)c2ccccc21,–,"0.651 µM [falling, single point]",–
CCN1C(=O)[C@H]2[C@@H](c3ccc(OC)cc3)N3C(=O)CN(CCOC)C(=O)[C@@]3(Cc3ccccc3)[C@H]2C1=O,27.5%,–,"29.1 µM [rising, single point]"
COc1ccc2c(c1)OC[C@H]1[C@H]2N2C(=O)c3cc(OC)ccc3NC(=O)[C@@]2(C)[C@H]1c1ccccc1,-5.08%,"0.82 µM [falling, single point]","0.82 µM [falling, full curve, poor fit]"
O=C(COC(=O)c1cccc(NS(=O)(=O)c2ccc(F)c(F)c2)c1)NC(=O)NC1CCCCC1,-66.7%,"18.4 µM [falling, partial curve, poor fit]",–
O=C(NCc1ccc2c(c1)OCO2)c1nn(-c2ccccc2)c(=O)c2ccccc12,18.5%,"0.184 µM [rising, full curve]","0.13 µM [rising, full curve, poor fit]"
O=C(N/N=C/C=C/c1ccccc1)c1cc(C2CC2)[nH]n1,6.25%,–,–
COc1ccc(/C=C2\CCCc3c2nc2ccc(C)cc2c3C(=O)O)cc1O,24%,"0.13 µM [falling, full curve, poor fit]",–
COc1cccc(/C=N/NC(=O)c2cnccn2)c1O,-14.6%,–,–
CCNc1nc(CC)nc2c1oc1ccccc12,11.3%,–,–
CCN(c1ccc(C)c(C)c1)S(=O)(=O)c1c(C)[nH]c(=O)[nH]c1=O,-10.4%,–,"0.259 µM [falling, full curve, poor fit]"
CCCCNC(=S)N1CCC(Cc2ccccc2)CC1,43.3%,"4.61 µM [rising, full curve]","4.11 µM [rising, partial curve, poor fit]"
COc1ccc(C(=O)C2CCCN(C(=O)C3=CCCC3)C2)c(C)c1 (configuration not stated),-20.5%,–,"29.1 µM [falling, single point]"
COc1ccc(C[C@H]2CN3C(=NC[C@H]3Cc3ccccc3)N2CCNC(=O)c2ccc(C)c(Br)c2)cc1,-71%,"29.1 µM [falling, single point]","25.9 µM [falling, partial curve]"
CCOc1ncccc1C(=O)OCc1cc(=O)oc2c(C)c(C)ccc12,2.94%,–,"5.17 µM [falling, single point]"
Cc1cc(C(=O)COC(=O)C2=NNC(=O)CC2)c(C)n1-c1ccccc1,6.74%,–,–
Cc1cc2c(ncn2C(C)C)c(NS(=O)(=O)c2ccc(F)cc2)c1C,32.3%,"16.4 µM [rising, single point]","9.2 µM [rising, partial curve, poor fit]"
O=C(NCC1CCCO1)C1CCCN1C(=O)Nc1ccccc1[N+](=O)[O-] (configuration not stated),3.95%,–,"35.5 µM [rising, single point]"
CCN1CC(CN(C)Cc2nc(-c3ccc(OC)c4ccccc34)oc2C)CC1=O (configuration not stated),8.23%,"0.651 µM [rising, full curve, poor fit]",–

# 2 entries from above in another layout:
Structure (SMILES)	cell number change	AC50 [1]	AC50 [2]
COc1ccc2c(c1)OC[C@H]1[C@H]2N2C(=O)c3cc(OC)ccc3NC(=O)[C@@]2(C)[C@H]1c1ccccc1	-5.08%	0.82 µM [falling, single point]	0.82 µM [falling, full curve, poor fit]
O=C(COC(=O)c1cccc(NS(=O)(=O)c2ccc(F)c(F)c2)c1)NC(=O)NC1CCCCC1	-66.7%	18.4 µM [falling, partial curve, poor fit]	–

# The listing continues.

Structure (SMILES),cell number change,AC50 [1],AC50 [2]
S=c1nc(-c2sccc2OCc2ccc(Cl)cc2Cl)[nH][nH]1,0.913%,"1.03 µM [rising, full curve]","1.84 µM [rising, partial curve]"
Cc1cc(C)c(C#N)c(Nc2ccc3c(c2)OCCO3)n1,-20%,"0.116 µM [falling, full curve, poor fit]","1.16 µM [falling, full curve]"
CC1=NNC(=O)C1CC(=O)N/N=C/c1ccc(C)o1 (configuration not stated),25.3%,–,"29.1 µM [rising, partial curve, poor fit]"
CCCCOc1ccc(-c2ncc([N+](=O)[O-])cn2)cc1,-4.59%,"1.64 µM [rising, partial curve, poor fit]","0.651 µM [rising, partial curve, poor fit]"
O=C(CN1CC(c2ccccc2)CC1=O)Nc1ccc2c(c1)OCO2 (configuration not stated),16.6%,–,"0.731 µM [rising, partial curve]"
O=C(CCCc1ccccc1)c1ccccc1,16.7%,–,"29.1 µM [rising, partial curve]"
CSc1nc(C)cc(OCC#N)n1,17.2%,–,"0.651 µM [rising, full curve, poor fit]"
CCC(C)(C)c1ccc(OCCCC[n+]2cccc(C)c2C)c(C(C)(C)CC)c1,-67.3%,"2.91 µM [falling, full curve]","2.31 µM [falling, partial curve, poor fit]"
OC(CNCC#Cc1ccccc1)c1ccccc1 (configuration not stated),-37.1%,–,–
COCCCNS(=O)(=O)c1ccc(S(=O)(=O)N2CCCC2)cc1,–,–,"2.91 µM [falling, partial curve, poor fit]"
O=C(NCCc1ccccc1)c1ccccc1NC(=O)C1CCCO1 (configuration not stated),136%,–,–
CCOC(=O)c1c(N)c(C#N)c2n1CCCCC2,-11.5%,–,"0.164 µM [falling, full curve, poor fit]"
COc1ccc(C)cc1NC(=O)C1CCCN1S(=O)(=O)c1ccccc1F (configuration not stated),-26.6%,–,–
COc1ccc(-c2cn3cccnc3n2)cc1Br,21.5%,–,"6.51 µM [rising, single point]"
O=C1c2ccccc2NC(c2ccc(O)cc2)N1c1ccccc1 (configuration not stated),-1.39%,–,–
CSCCC(NS(=O)(=O)c1ccccc1F)C(=O)NCc1cccnc1 (configuration not stated),50.6%,"13 µM [rising, partial curve, poor fit]",–
CCOCCCNC(=O)C(NC(=O)c1ccccc1O)c1ccc(Cl)cc1 (configuration not stated),1.6%,–,–
O=C(CSC1CN(C(c2ccccc2)c2ccccc2)C1)N/N=C/c1ccc(Cl)cc1Cl,22%,–,"29.1 µM [rising, single point]"
NC(=O)c1ccc(-c2nnc(Nc3ccc(S(N)(=O)=O)cc3)c3ccccc23)cc1,-18.3%,–,"29.1 µM [falling, single point]"
O=S(=O)(CC(CN1CCCC1)N1CCCC1)c1ccc2ccccc2c1 (configuration not stated),–,–,"9.2 µM [falling, partial curve]"
Cc1ccc(-c2noc(CSc3nnnn3-c3ccccc3)n2)cc1,–,–,"25.9 µM [falling, single point]"

# Complete entries from above. Values in the order: cell number change	AC50 [1]	AC50 [2]
# CSCCC(NS(=O)(=O)c1ccccc1F)C(=O)NCc1cccnc1 (configuration not stated) is listed with 50.6%	13 µM [rising, partial curve, poor fit]	–
# CSc1nc(C)cc(OCC#N)n1 is listed with 17.2%	–	0.651 µM [rising, full curve, poor fit]
# O=C(N/N=C/C=C/c1ccccc1)c1cc(C2CC2)[nH]n1 is listed with 6.25%	–	–

# Remaining list, next part.

Structure (SMILES),cell number change,AC50 [1],AC50 [2]
CCOC(=O)CC(NC(=O)Cc1cccs1)c1ccccc1Cl (configuration not stated),-1.42%,–,–
CCC(=O)NCCc1nc2cc(NC(=O)c3ccccc3OC)ccc2n1C,41.5%,"0.058 µM [rising, full curve, poor fit]",–
CCN(CC)c1ccc(NC(=O)CCN2C(=O)c3ccccc3S2(=O)=O)c(C)c1,20.5%,–,–
O=C1CN(c2ccccc2)C(=S)N1C(=O)c1ccccc1,-14.3%,–,"0.00461 µM [falling, full curve, poor fit]"
CCn1c(Cc2ccccc2)nnc1SC(C)C(=O)NC1CC1 (configuration not stated),9.78%,–,"0.82 µM [rising, full curve]"
c1ccc(-c2ccc3nnnn3n2)cc1,-14.4%,–,"4.11 µM [falling, single point]"
O=C(Nc1cc(Cl)ccc1N1CCCCC1)c1cccs1,34.5%,"0.82 µM [rising, full curve]","2.31 µM [rising, partial curve]"
CCCCC(=O)Nc1cccc(-c2cn3ccccc3n2)c1,-29.8%,–,"7.31 µM [falling, partial curve]"
Nc1nonc1C(=O)N1CCCCC1,–,–,"0.58 µM [rising, single point]"
O=C1NC(=O)/C(=C/c2cccc3ccccc23)S1,-19.5%,–,"29.1 µM [rising, single point]"
COc1cc(OC)c(N2CC34C=CC(O3)C(C(=O)O)C4C2=O)cc1Cl (configuration not stated),-42.6%,"25.9 µM [falling, single point]","29.1 µM [falling, single point]"
CN1c2ccccc2C(O)=C(C(=S)Nc2ccccc2)S1(=O)=O,-24.9%,–,"1.3 µM [falling, full curve]"
Cc1ccc(C2C(/C=C3/SC(=S)NC3=O)=C(c3cccs3)Oc3ccccc32)cc1 (configuration not stated),-14.4%,–,"0.0058 µM [falling, full curve, poor fit]"
CN(CC(=O)NCc1ccc(Cl)cc1)S(=O)(=O)c1cccs1,1.35%,–,"29.1 µM [rising, single point]"
COc1ccc(-c2coc3cc4oc(=O)c(CC(=O)O)c(C)c4cc23)cc1,44.4%,"7.31 µM [rising, full curve]","29.1 µM [falling, single point]"
CCNC(=S)N1CCN(C(=O)c2ccco2)CC1,21%,–,"18.4 µM [rising, single point]"
O=C(CSc1nnc(C2CC2)n1C1CC1)Nc1cccc(Br)c1,-45.8%,"0.82 µM [falling, full curve]","0.164 µM [falling, full curve]"
CC(=O)N1CCN(c2ccc(NC(=O)C(C)Oc3ccc(Cl)cc3Cl)cc2)CC1 (configuration not stated),–,–,"0.731 µM [rising, single point]"
N#CCc1nn2c3c(cnc2c1C#N)C(=O)CCC3,-33.6%,–,–
CSc1ccc(-c2nnn(Cc3ccc(C)cc3)n2)cc1,87%,"29.1 µM [rising, single point]","6.51 µM [rising, single point]"
